Reference: PubChem BioAssay AID2685 (National Center for Advancing Translational Sciences (NCATS), 2010)
Some of the results follow. Further columns of the screen follow, without active or inactive calls. Compounds called inactive in the main read-out are mostly missing here. The note in brackets gives the kind of curve behind each potency; many fits are weak.

Assay: qHTS Assay for Lipid Storage Modulators in Drosophila S3 Cells;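 for cell number change: cells counted by Cell Tracker Red CMTPX staining in the red channel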
Conditions: BODIPY lipid droplet fluorescence, 18-24 h; for cell number change: measured here: cell count max response, cells fed with added oleic acid
In short: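 Laser-scanning cytometry quantifies lipid droplet accumulation (500–530 nm total intensity; droplet/cell object ratio) in oleic acid-fed (400 uM added) Drosophila S3 cells treated with a concentration series. 20 uM Triacsin C defined 100% inhibition.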

[1] = measured here: lipid fluorescence (Fed channel) AC50, cells fed with added oleic acid
[2] = measured here: cell number channel AC50, cells fed with added oleic acid

Structure (SMILES) | cell number change | AC50 [1] | AC50 [2]
Cn1cc(SCC(=O)NC2CCCCC2)c2ccccc21 | 42.9% | 23.1 µM [rising, single point] | –
COc1ccc(-c2nnc(SCC(=O)c3cccs3)o2)c(OC)c1 | -32.5% | – | 18.4 µM [falling, single point]
N#C/C(=N\Nc1ccc(Cl)cc1)C(=O)c1ccsc1 | -16.8% | 18.4 µM [falling, partial curve] | –
CCCCSc1nc2c(c(=O)[nH]c(=O)n2C)n1CCc1ccccc1 | -79.8% | – | 20.6 µM [falling, single point]
O=C(O)c1ccc(CN(Cc2ccccc2)S(=O)(=O)c2ccc(Cl)cc2)cc1 | 9.52% | 29.1 µM [rising, single point] | –
CNC(=O)Cn1nc(C)c2ccccc2c1=O | -5.3% | – | –
COc1ccc(CNC(=O)CSc2nnc(C)c(=O)[nH]2)cc1 | 14.2% | 29.1 µM [rising, single point] | –
CCOc1ccc(-c2cc(CCCC(=O)NCc3ccc(C)cc3)no2)cc1 | 1.84% | 18.4 µM [falling, single point] | 2.59 µM [rising, partial curve]
Cn1c(=O)n(C)c2cc(CNc3ccc(N4CCOCC4)c(C(=O)O)c3)ccc21 | 67.1% | – | 23.1 µM [rising, single point]
O=C(CNC(=O)c1ccccc1Cl)NCC(c1cccs1)N1CCOCC1 (stereo not given) | 1.41% | 23.1 µM [falling, single point] | –
CCN(CC)Cc1c(O)ccc2c(C)c(CC(=O)OC)c(=O)oc12 | -35.6% | 6.51 µM [falling, single point] | 5.8 µM [falling, partial curve, poor fit]
Cc1ccc2cc(CCNC(=O)c3cccs3)c(=O)[nH]c2c1 | 12% | 1.3 µM [rising, full curve] | –
COc1ccc(N2CCN(c3nc4ccccn4c(=O)c3/C=C(\C#N)S(=O)(=O)c3ccccc3)CC2)cc1 | -7.66% | 2.91 µM [falling, full curve] | –
COc1ccc(/C=C/C(=O)c2ccc(NC3=NCCCS3)cc2)cc1OC | 2.84% | 0.0146 µM [falling, full curve, poor fit] | –
Cc1ccc(N2CCN(c3ccc(NC(=O)CCC(=O)O)cc3)CC2)cc1 | 6.12% | 11.6 µM [falling, partial curve, poor fit] | –
Cc1onc(-c2ccccc2)c1C(=O)N(C)CCc1ccccn1 | 38.1% | 0.58 µM [rising, partial curve, poor fit] | 8.2 µM [rising, partial curve, poor fit]
Cc1ccc(S(=O)(=O)NC(C)C(=O)NC2CCCCCC2)cc1 (stereo not given) | -38.3% | 8.2 µM [falling, partial curve, poor fit] | 14.6 µM [falling, partial curve]
CCCCN(C(=O)c1cc(-c2ccco2)nc2ccccc12)c1c(N)n(CCC)c(=O)[nH]c1=O | -1.2% | – | –
CC(C)OC(=O)c1cn(-c2ccccc2)nc1-c1ccc2c(c1)OCCO2 | 56% | – | 2.59 µM [rising, full curve, poor fit]
CC(=O)NC(=S)Nc1cccc([N+](=O)[O-])c1 | -31% | – | –

Structure (SMILES) | cell number change | AC50 [1] | AC50 [2]
COc1ccc2nc(NC(=O)CSC(C)C(=O)Nc3cc(C)on3)sc2c1 (stereo not given) | -4.53% | 0.00461 µM [falling, full curve, poor fit] | –
O=C(NCc1cccnc1)c1ccc(CS(=O)(=O)c2ccc(Br)cc2)o1 | – | – | 0.116 µM [rising, full curve, poor fit]
CCN(Cc1ccccc1)C(=O)c1cc2c(=O)oc3ccc(C)cc3c2s1 | – | 0.651 µM [rising, full curve, poor fit] | –
C/C(=N/NS(=O)(=O)c1ccc(C)cc1C)c1c[nH]c2ccccc12 | -29.2% | 29.1 µM [falling, single point] | –
CC(C)c1ccc(N2CCN(C(=O)c3ccccc3NC(=O)/C=C\C(=O)O)CC2)cc1 | -3.94% | – | –
COC(=O)C1=C(C)N(C)C(=O)NC1c1ccsc1 (stereo not given) | -33% | 8.91 µM [falling, partial curve] | 8.91 µM [falling, partial curve]
COC(=O)c1ccccc1OCCCCN1CC(C)OC(C)C1 (stereo not given) | -46.8% | – | 0.00461 µM [falling, full curve, poor fit]
COC(=O)c1ccc(CNC(=O)CSc2nc3ccccc3[nH]2)cc1 | -11.8% | – | –
CC/C(=N\Nc1ccnc2cc(Cl)ccc12)c1ccc(O)cc1 | -18.4% | 5.62 µM [rising, single point] | –
COc1ccc(-c2cn3cccnc3n2)cc1NC(=O)CC(C)C | -7.28% | 6.51 µM [falling, single point] | –
CCCC1C(c2ccc(OC)cc2)C(C#N)(C#N)C2(C#N)CC1(N)NC2=O (stereo not given) | 34.6% | – | 0.82 µM [rising, full curve, poor fit]
CS(=O)(=O)N(Cc1ccc(Cl)cc1)c1ccc(C(=O)N/N=C/c2cc3ccccc3nc2Cl)cc1 | 30.7% | – | 2.59 µM [rising, full curve]
Cc1ccc(OCCNS(=O)(=O)c2ccc(N3CCCC3=O)cc2)cc1C | -30.5% | – | 29.1 µM [falling, single point]
Cc1ccc(CN2CCCNC2=O)cc1 | -6.11% | 1.16 µM [rising, full curve, poor fit] | –
Cc1cc(C(=O)Cn2nnc(-c3ccc(Cl)cc3)n2)c(C)n1CC1CCCO1 (stereo not given) | -1.62% | 0.0517 µM [rising, partial curve, poor fit] | –
CCN(CC)S(=O)(=O)c1cccc(C(=O)NC(C)C(c2cccs2)N2CCCC2)c1 (stereo not given) | – | 0.103 µM [rising, full curve, poor fit] | –
Cc1ccc(C)c(S(=O)(=O)Nc2ccc(C(=O)N3CCCCC3)cc2)c1 | 8.21% | 0.411 µM [rising, partial curve] | –
NC(=O)C(c1ccccc1)c1ccc(C(=O)c2ccccc2)cc1 (stereo not given) | 14.4% | 18.4 µM [falling, single point] | –
CCOc1ccccc1N1CCN(C(=O)CC(C)(C)C)CC1 | 12.8% | – | 0.103 µM [rising, full curve, poor fit]
CN1C(=O)/C(=C/C=C2\SCCN2C)SC1=S | -17.4% | 25.9 µM [falling, single point] | –

Reformatted as tab-separated lines: part of the list above.
Structure (SMILES)	cell number change	AC50 [1]	AC50 [2]
CCN(Cc1ccccc1)C(=O)c1cc2c(=O)oc3ccc(C)cc3c2s1	–	0.651 µM [rising, full curve, poor fit]	–
CC(C)c1ccc(N2CCN(C(=O)c3ccccc3NC(=O)/C=C\C(=O)O)CC2)cc1	-3.94%	–	–
COC(=O)c1ccccc1OCCCCN1CC(C)OC(C)C1 (stereo not given)	-46.8%	–	0.00461 µM [falling, full curve, poor fit]
CC/C(=N\Nc1ccnc2cc(Cl)ccc12)c1ccc(O)cc1	-18.4%	5.62 µM [rising, single point]	–
COc1ccc(-c2cn3cccnc3n2)cc1NC(=O)CC(C)C	-7.28%	6.51 µM [falling, single point]	–
CS(=O)(=O)N(Cc1ccc(Cl)cc1)c1ccc(C(=O)N/N=C/c2cc3ccccc3nc2Cl)cc1	30.7%	–	2.59 µM [rising, full curve]
Cc1ccc(OCCNS(=O)(=O)c2ccc(N3CCCC3=O)cc2)cc1C	-30.5%	–	29.1 µM [falling, single point]
Cc1ccc(CN2CCCNC2=O)cc1	-6.11%	1.16 µM [rising, full curve, poor fit]	–
Cc1cc(C(=O)Cn2nnc(-c3ccc(Cl)cc3)n2)c(C)n1CC1CCCO1 (stereo not given)	-1.62%	0.0517 µM [rising, partial curve, poor fit]	–
Cc1ccc(C)c(S(=O)(=O)Nc2ccc(C(=O)N3CCCCC3)cc2)c1	8.21%	0.411 µM [rising, partial curve]	–
NC(=O)C(c1ccccc1)c1ccc(C(=O)c2ccccc2)cc1 (stereo not given)	14.4%	18.4 µM [falling, single point]	–

The listing continues.

Structure (SMILES) | cell number change | AC50 [1] | AC50 [2]
COc1ccccc1Cn1c(=O)c2ccccc2n2c(SCc3csc(C)n3)nnc12 | -23.8% | 1.64 µM [rising, partial curve] | –
COCC1CCCCN1C(=O)c1ccc2nc(Cc3ccc(OC)c(OC)c3)oc2c1 (stereo not given) | -35.1% | – | 0.00517 µM [falling, full curve, poor fit]
COc1ccc(NC(=O)c2oc3ccccc3c2NC(=O)C(C)(C)C)cc1 | – | 0.651 µM [rising, single point] | –
N#Cc1nc(COc2cccc(Cl)c2)oc1N1CCCC1 | -0.408% | – | 0.82 µM [falling, full curve, poor fit]
COc1ccc(N(C)S(=O)(=O)c2ccc3c(c2)NC(=O)CC(=O)N3)c(OC)c1 | 0.295% | 29.1 µM [falling, single point] | –
CCOc1ccc(N(Cc2cc3cc(OC)ccc3[nH]c2=O)C(=O)C2CCCO2)cc1 (stereo not given) | -32.4% | – | 9.2 µM [falling, partial curve]
CCCCCCP(=O)(O)c1ccccc1 | 4.46% | 0.651 µM [falling, full curve] | –
CCOC(=O)C1=C(C)OC(N)=C(C#N)C1c1ccc(C)o1 (stereo not given) | – | 0.82 µM [falling, single point] | –
CCN1C(=O)/C(=C\c2cccc(OC(=O)c3ccco3)c2)SC1=S | -28.2% | 1.16 µM [rising, partial curve, poor fit] | –
CCO[C@@H]1OC(C(=O)NCc2nc3ccccc3[nH]2)=C[C@H](c2csc3ccccc23)[C@H]1CCCO | -42.7% | 29.1 µM [falling, single point] | 10.3 µM [falling, partial curve]
CC1(C)Cc2c(C#N)c(NCC3CCCO3)nc(-c3ccco3)c2CO1 (stereo not given) | -15.3% | 0.164 µM [rising, full curve, poor fit] | –
COc1ccc(/C=C/c2cc(C(=O)O)c3ccccc3n2)cc1 | -18.3% | – | 0.00461 µM [falling, full curve, poor fit]
O=C(NCc1cccc(Cl)c1)c1ccc2c(c1)SC1=NS(=O)(=O)CCN12 | 157% | 0.58 µM [rising, single point] | 6.51 µM [falling, single point]
COc1ccc(C(=O)OCC(=O)c2ccc(CNC(C)=O)s2)cc1 | 11% | 4.11 µM [falling, single point] | –
O=C(NN1CCOCC1)c1ccc(Cl)cc1 | – | 0.92 µM [rising, full curve] | –
COc1ccc(-c2nc(N3CCN(C)CC3)sc2-c2ccc(OC)cc2)cc1 | 1.3% | 0.58 µM [rising, single point] | –
COC(=O)Cc1c(C)c2ccc(OCC(=O)N3CCC(C)CC3)c(C)c2oc1=O | -42.4% | 14.6 µM [falling, partial curve, poor fit] | 20.6 µM [falling, single point]
CCOC(=O)N1CCc2c(sc(NC(=O)C3COc4ccccc4O3)c2C(N)=O)C1 (stereo not given) | 75.4% | 0.411 µM [falling, partial curve, poor fit] | –
CCOc1ncccc1C(=O)NCCc1ccc(S(N)(=O)=O)cc1 | 12.7% | 0.651 µM [rising, partial curve, poor fit] | –
